Laboratory results: PubChem BioAssay AID1259254 (NCATS, 2017)
Here is one part, drawn at random, of about 59,000 reagents tested. About 1,550 of them (2.6%) count as active. 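G2 share is only a proxy for re-replication; each gene was hit by three separate siRNAs, and active genes were retested.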 Unmarked entries are inactive. The numbers tell different reagents against one gene apart. Further read-outs or replicates are left out here. The record does not give: the amount of reagent.

- Screen: 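Genome-wide screen for genes that prevent DNA re-replication in cancer cells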 (primary screen)
- Cells: human HCT116 colorectal cancer cells
- Reagents: single siRNA against human genes
- Timing: 3 days
- Measured: 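Imaged Hoechst DNA stain sorts each cell into a cycle phase by DNA amount; per plate, G2 fraction set to 0% for non-targeting and 100% for GMNN siRNA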
- Scale: G2 robust z-score: higher = more G2 cells, more excess DNA replication
- Active means: 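An siRNA counts as active if its G2 robust z-score lies at least 5 MADs above the screen median; here such calls match roughly 38% of GMNN control or more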

| target gene | siRNA no. | G2 robust z-score |
| --- | --- | --- |
| MYBPH | 1 | -0.737 |
| MYBPH | 2 | -0.671 |
| MYBPH | 3 | -0.483 |
| GAL3ST3 | 1 | -0.96 |
| GAL3ST3 | 2 | -0.849 |
| GAL3ST3 | 3 | -0.56 |
| OR4A16 | 1 | -0.0217 |
| OR4A16 | 2 | 2.55 |
| OR4A16 | 3 | 0.582 |
| PRMT7 | 1 | 1.73 |
| PRMT7 | 2 | -0.804 |
| PRMT7 | 3 | 1.06 |
| FBXO4 | 1 | 5.18 (active) |
| FBXO4 | 2 | 1.49 |
| FBXO4 | 3 | 1.69 |
| MYO1F | 1 | 1.12 |
| MYO1F | 2 | 0.231 |
| MYO1F | 3 | 1.22 |

Look-ups from the list.
Under “G2 robust z-score”, MYBPH #2 is entered as -0.671
MYBPH #3, G2 robust z-score: -0.483

Further records:
| target gene | siRNA no. | G2 robust z-score |
| --- | --- | --- |
| ST6GALNAC1 | 1 | 0.481 |
| ST6GALNAC1 | 2 | 0.167 |
| ST6GALNAC1 | 3 | -0.129 |
| PIP5K1A | 1 | -0.342 |
| PIP5K1A | 2 | 2.87 |
| PIP5K1A | 3 | -0.622 |
| MAPKAPK2 | 1 | 1.57 |
| MAPKAPK2 | 2 | 0.166 |
| MAPKAPK2 | 3 | -0.187 |
| NCAPH2 | 1 | 0.964 |
| NCAPH2 | 2 | -0.0535 |
| NCAPH2 | 3 | -0.671 |
